The values that follow come from patent US20040241239A1, “Mixed complexes for masking the taste of bitter active substances” (priority 2001, published 2004).

A short description of this data set: Acceptance test of HMR 3647 (taste of aqueous dispersion in the mouth). It counts as in vivo. As to conditions: oral application, 1 ml of aqueous dispersion for one minute in the mouth.

On to `CC[C@H]1OC(=O)[C@H](C)C(=O)[C@H](C)[C@@H](O[C@@H]2O[C@H](C)C[C@H](N(C)C)[C@H]2O)[C@](C)(OC)C[C@@H](C)C(=O)[C@H](C)[C@H]2N(CCCCn3cnc(-c4cccnc4)c3)C(=O)O[C@]12C` [HMR 3647], for which the “concentration starting from which all test persons found the taste unacceptable” value is no less than 10 µg/mL and the “concentration starting from which the product was found unacceptable” value is no less than 2.5 µg/mL.
